Results from the supplement of paper PMC11546906.
Structures can show the parent of a compound that is named as a salt. Some of the results follow. This data set is noisy: repeats of one test often differ as much as different tests do.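 A screen tested FDA-approved drugs combined with one-eighth-MIC colistin against a clinical mcr-1-positive, multidrug-resistant E. coli isolate, measuring OD600 at 24 h. Controls were untreated bacteria (growth) and broth alone (blank). An OD600 under 0.2 marked a combination as active.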

These compounds were tested on Escherichia coli 42 (mcr-1-positive clinical isolate) (assay: OD600 after 24 h growth with compound plus colistin (absorbance units (OD600)); higher = more bacterial growth (less inhibition)). Conditions: first compound 25 µM; colistin concentration 0.5 ug/mL; incubation time 24 h; 37 °C.

OD600, inactive:
N=C(N)NC(=O)Cc1c(Cl)cccc1Cl [Guanfacine hydrochloride] + CCC(C)CCCC(=O)N[C@@H](CCN)C(=O)N[C@H](C(=O)N[C@@H](CCN)C(=O)N[C@H]1CCNC(=O)[C@H]([C@@H](C)O)NC(=O)[C@H](CCN)NC(=O)[C@H](CCN)NC(=O)[C@H](CC(C)C)NC(=O)[C@@H](CC(C)C)NC(=O)[C@H](CCN)NC1=O)[C@@H](C)O [colistin] 0.74
CCN1CCCC1CNC(=O)c1cc(S(=O)(=O)CC)c(N)cc1OC (stereo not given) [Amisulpride] + CCC(C)CCCC(=O)N[C@@H](CCN)C(=O)N[C@H](C(=O)N[C@@H](CCN)C(=O)N[C@H]1CCNC(=O)[C@H]([C@@H](C)O)NC(=O)[C@H](CCN)NC(=O)[C@H](CCN)NC(=O)[C@H](CC(C)C)NC(=O)[C@@H](CC(C)C)NC(=O)[C@H](CCN)NC1=O)[C@@H](C)O [colistin] 1
Cc1cc(C2CCCCC2)n(O)c(=O)c1 [Ciclopirox] + CCC(C)CCCC(=O)N[C@@H](CCN)C(=O)N[C@H](C(=O)N[C@@H](CCN)C(=O)N[C@H]1CCNC(=O)[C@H]([C@@H](C)O)NC(=O)[C@H](CCN)NC(=O)[C@H](CCN)NC(=O)[C@H](CC(C)C)NC(=O)[C@@H](CC(C)C)NC(=O)[C@H](CCN)NC1=O)[C@@H](C)O [colistin] 0.947
C[C@@H]1CCN(C(=O)CC#N)C[C@@H]1N(C)c1ncnc2[nH]ccc12 [Tofacitinib Citrate] + CCC(C)CCCC(=O)N[C@@H](CCN)C(=O)N[C@H](C(=O)N[C@@H](CCN)C(=O)N[C@H]1CCNC(=O)[C@H]([C@@H](C)O)NC(=O)[C@H](CCN)NC(=O)[C@H](CCN)NC(=O)[C@H](CC(C)C)NC(=O)[C@@H](CC(C)C)NC(=O)[C@H](CCN)NC1=O)[C@@H](C)O [colistin] 0.901
CCN(CC)CC(=O)Nc1c(C)cccc1C [Lidocaine hydrochloride] + CCC(C)CCCC(=O)N[C@@H](CCN)C(=O)N[C@H](C(=O)N[C@@H](CCN)C(=O)N[C@H]1CCNC(=O)[C@H]([C@@H](C)O)NC(=O)[C@H](CCN)NC(=O)[C@H](CCN)NC(=O)[C@H](CC(C)C)NC(=O)[C@@H](CC(C)C)NC(=O)[C@H](CCN)NC1=O)[C@@H](C)O [colistin] 1.03
CCc1cc2c(cc1CC)CC(NC[C@H](O)c1ccc(O)c3[nH]c(=O)ccc13)C2 [Indacaterol maleate] + CCC(C)CCCC(=O)N[C@@H](CCN)C(=O)N[C@H](C(=O)N[C@@H](CCN)C(=O)N[C@H]1CCNC(=O)[C@H]([C@@H](C)O)NC(=O)[C@H](CCN)NC(=O)[C@H](CCN)NC(=O)[C@H](CC(C)C)NC(=O)[C@@H](CC(C)C)NC(=O)[C@H](CCN)NC1=O)[C@@H](C)O [colistin] 1.03
N=c1nc(N2CCCCC2)cc(N)n1O [Minoxidil] + CCC(C)CCCC(=O)N[C@@H](CCN)C(=O)N[C@H](C(=O)N[C@@H](CCN)C(=O)N[C@H]1CCNC(=O)[C@H]([C@@H](C)O)NC(=O)[C@H](CCN)NC(=O)[C@H](CCN)NC(=O)[C@H](CC(C)C)NC(=O)[C@@H](CC(C)C)NC(=O)[C@H](CCN)NC1=O)[C@@H](C)O [colistin] 1.1
Cc1ccc(C(=O)c2ccc(CC(=O)O)n2C)cc1 [Tolmetin] + CCC(C)CCCC(=O)N[C@@H](CCN)C(=O)N[C@H](C(=O)N[C@@H](CCN)C(=O)N[C@H]1CCNC(=O)[C@H]([C@@H](C)O)NC(=O)[C@H](CCN)NC(=O)[C@H](CCN)NC(=O)[C@H](CC(C)C)NC(=O)[C@@H](CC(C)C)NC(=O)[C@H](CCN)NC1=O)[C@@H](C)O [colistin] 1.12
Cc1c(S(=O)(=O)O)oc2c1C(=O)C(=O)c1c-2ccc2c1CCCC2(C)C [Tanshinone IIA sulfonate sodium] + CCC(C)CCCC(=O)N[C@@H](CCN)C(=O)N[C@H](C(=O)N[C@@H](CCN)C(=O)N[C@H]1CCNC(=O)[C@H]([C@@H](C)O)NC(=O)[C@H](CCN)NC(=O)[C@H](CCN)NC(=O)[C@H](CC(C)C)NC(=O)[C@@H](CC(C)C)NC(=O)[C@H](CCN)NC1=O)[C@@H](C)O [colistin] 1.07
OC(Cn1cncn1)(Cn1cncn1)c1ccc(F)cc1F [Fluconazole] + CCC(C)CCCC(=O)N[C@@H](CCN)C(=O)N[C@H](C(=O)N[C@@H](CCN)C(=O)N[C@H]1CCNC(=O)[C@H]([C@@H](C)O)NC(=O)[C@H](CCN)NC(=O)[C@H](CCN)NC(=O)[C@H](CC(C)C)NC(=O)[C@@H](CC(C)C)NC(=O)[C@H](CCN)NC1=O)[C@@H](C)O [colistin] 0.828
NC(N)=Nc1nc(CSCC/C(N)=N/S(N)(=O)=O)cs1 [Famotidine] + CCC(C)CCCC(=O)N[C@@H](CCN)C(=O)N[C@H](C(=O)N[C@@H](CCN)C(=O)N[C@H]1CCNC(=O)[C@H]([C@@H](C)O)NC(=O)[C@H](CCN)NC(=O)[C@H](CCN)NC(=O)[C@H](CC(C)C)NC(=O)[C@@H](CC(C)C)NC(=O)[C@H](CCN)NC1=O)[C@@H](C)O [colistin] 0.968
CN1CCN2c3ncccc3Cc3ccccc3C2C1 (stereo not given) [Mirtazapine] + CCC(C)CCCC(=O)N[C@@H](CCN)C(=O)N[C@H](C(=O)N[C@@H](CCN)C(=O)N[C@H]1CCNC(=O)[C@H]([C@@H](C)O)NC(=O)[C@H](CCN)NC(=O)[C@H](CCN)NC(=O)[C@H](CC(C)C)NC(=O)[C@@H](CC(C)C)NC(=O)[C@H](CCN)NC1=O)[C@@H](C)O [colistin] 1.09
Cc1nc(Nc2ncc(C(=O)Nc3c(C)cccc3Cl)s2)cc(N2CCN(CCO)CC2)n1 [Dasatinib] + CCC(C)CCCC(=O)N[C@@H](CCN)C(=O)N[C@H](C(=O)N[C@@H](CCN)C(=O)N[C@H]1CCNC(=O)[C@H]([C@@H](C)O)NC(=O)[C@H](CCN)NC(=O)[C@H](CCN)NC(=O)[C@H](CC(C)C)NC(=O)[C@@H](CC(C)C)NC(=O)[C@H](CCN)NC1=O)[C@@H](C)O [colistin] 0.792
CC1(C)S[C@@H]2[C@H](NC(=O)[C@H](C(=O)O)c3ccsc3)C(=O)N2[C@H]1C(=O)O [Ticarcillin disodium] + CCC(C)CCCC(=O)N[C@@H](CCN)C(=O)N[C@H](C(=O)N[C@@H](CCN)C(=O)N[C@H]1CCNC(=O)[C@H]([C@@H](C)O)NC(=O)[C@H](CCN)NC(=O)[C@H](CCN)NC(=O)[C@H](CC(C)C)NC(=O)[C@@H](CC(C)C)NC(=O)[C@H](CCN)NC1=O)[C@@H](C)O [colistin] 0.756
Nc1ncn([C@@H]2O[C@H](CO)[C@@H](O)[C@H]2O)c(=O)n1 [5-Azacytidine] + CCC(C)CCCC(=O)N[C@@H](CCN)C(=O)N[C@H](C(=O)N[C@@H](CCN)C(=O)N[C@H]1CCNC(=O)[C@H]([C@@H](C)O)NC(=O)[C@H](CCN)NC(=O)[C@H](CCN)NC(=O)[C@H](CC(C)C)NC(=O)[C@@H](CC(C)C)NC(=O)[C@H](CCN)NC1=O)[C@@H](C)O [colistin] 0.478
CC(=O)O[C@H]1C(=O)[C@@]2(C)[C@H]([C@H](OC(=O)c3ccccc3)[C@]3(O)C[C@H](OC(=O)[C@H](O)[C@@H](NC(=O)c4ccccc4)c4ccccc4)C(C)=C1C3(C)C)[C@]1(OC(C)=O)CO[C@@H]1C[C@@H]2O [Paclitaxel] + CCC(C)CCCC(=O)N[C@@H](CCN)C(=O)N[C@H](C(=O)N[C@@H](CCN)C(=O)N[C@H]1CCNC(=O)[C@H]([C@@H](C)O)NC(=O)[C@H](CCN)NC(=O)[C@H](CCN)NC(=O)[C@H](CC(C)C)NC(=O)[C@@H](CC(C)C)NC(=O)[C@H](CCN)NC1=O)[C@@H](C)O [colistin] 0.937
OC[C@H]1OC(O)[C@H](O)[C@@H](O)[C@@H]1O (stereo partly drawn) [D-Glucose] + CCC(C)CCCC(=O)N[C@@H](CCN)C(=O)N[C@H](C(=O)N[C@@H](CCN)C(=O)N[C@H]1CCNC(=O)[C@H]([C@@H](C)O)NC(=O)[C@H](CCN)NC(=O)[C@H](CCN)NC(=O)[C@H](CC(C)C)NC(=O)[C@@H](CC(C)C)NC(=O)[C@H](CCN)NC1=O)[C@@H](C)O [colistin] 1.1
c1ccc(Cc2nc3ccccc3[nH]2)cc1 [Bendazol] + CCC(C)CCCC(=O)N[C@@H](CCN)C(=O)N[C@H](C(=O)N[C@@H](CCN)C(=O)N[C@H]1CCNC(=O)[C@H]([C@@H](C)O)NC(=O)[C@H](CCN)NC(=O)[C@H](CCN)NC(=O)[C@H](CC(C)C)NC(=O)[C@@H](CC(C)C)NC(=O)[C@H](CCN)NC1=O)[C@@H](C)O [colistin] 1.2
CNCCC(Oc1ccc(C(F)(F)F)cc1)c1ccccc1 (stereo not given) [Fluoxetine hydrochloride] + CCC(C)CCCC(=O)N[C@@H](CCN)C(=O)N[C@H](C(=O)N[C@@H](CCN)C(=O)N[C@H]1CCNC(=O)[C@H]([C@@H](C)O)NC(=O)[C@H](CCN)NC(=O)[C@H](CCN)NC(=O)[C@H](CC(C)C)NC(=O)[C@@H](CC(C)C)NC(=O)[C@H](CCN)NC1=O)[C@@H](C)O [colistin] 1.21
COC(=O)[C@@H]1CC2=CC(=O)CC[C@]2(C)[C@@]23O[C@@H]2C[C@@]2(C)[C@@H](CC[C@@]24CCC(=O)O4)[C@H]13 [Eplerenone] + CCC(C)CCCC(=O)N[C@@H](CCN)C(=O)N[C@H](C(=O)N[C@@H](CCN)C(=O)N[C@H]1CCNC(=O)[C@H]([C@@H](C)O)NC(=O)[C@H](CCN)NC(=O)[C@H](CCN)NC(=O)[C@H](CC(C)C)NC(=O)[C@@H](CC(C)C)NC(=O)[C@H](CCN)NC1=O)[C@@H](C)O [colistin] 1.06

Nothing new here: entries from further up.
OD600, inactive:
Cc1nc(Nc2ncc(C(=O)Nc3c(C)cccc3Cl)s2)cc(N2CCN(CCO)CC2)n1 [Dasatinib] + CCC(C)CCCC(=O)N[C@@H](CCN)C(=O)N[C@H](C(=O)N[C@@H](CCN)C(=O)N[C@H]1CCNC(=O)[C@H]([C@@H](C)O)NC(=O)[C@H](CCN)NC(=O)[C@H](CCN)NC(=O)[C@H](CC(C)C)NC(=O)[C@@H](CC(C)C)NC(=O)[C@H](CCN)NC1=O)[C@@H](C)O [colistin] 0.792
CC1(C)S[C@@H]2[C@H](NC(=O)[C@H](C(=O)O)c3ccsc3)C(=O)N2[C@H]1C(=O)O [Ticarcillin disodium] + CCC(C)CCCC(=O)N[C@@H](CCN)C(=O)N[C@H](C(=O)N[C@@H](CCN)C(=O)N[C@H]1CCNC(=O)[C@H]([C@@H](C)O)NC(=O)[C@H](CCN)NC(=O)[C@H](CCN)NC(=O)[C@H](CC(C)C)NC(=O)[C@@H](CC(C)C)NC(=O)[C@H](CCN)NC1=O)[C@@H](C)O [colistin] 0.756
